PubChem BioAssay AID743121 | NCATS | 2013

- Screen: 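Partners whose loss is lethal together with topoisomerase I blockade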 (primary screen)
- System: MDA-MB-231 cells, a human breast cancer line
- Reagent: single siRNA against human genes, 20 nM siRNA (0.8 pmol per well)
- Duration: 120 h (drug added 48 h after transfection, read 72 h later)
- Treatment: camptothecin 20 nM (about EC30) for 72 h; vehicle 0.1% DMSO in parallel plates
- Measured: 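CellTiter-Glo ATP signal, scaled to control siRNA as percent viability; sensitisation given as log2 of untreated divided by camptothecin-treated viability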
- Scale: log2 vehicle/camptothecin viability: higher = stronger sensitisation to camptothecin; viability with camptothecin and viability without drug: higher = more viable cells
- Rule for the call: 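Each gene scored by redundant siRNA activity (RSA) over its individual siRNA ratios; a gene is called active at p < 0.001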
The whole screen tested about 26,000 reagents; below is a part drawn at random. 167 of all reagents (0.63%) were called active. 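Calls are per gene from RSA p-values that are not deposited; an individual active-marked siRNA can sensitise only weakly.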 The numbers tell different reagents against one gene apart.

target | siRNA no. | log2 vehicle/camptothecin viability | viability with camptothecin (% of control) | viability without drug (% of control) | activity call
MGAM2 | 1 | -0.274 | 81.1 | 67.1 | inactive
MGAM2 | 2 | 0.306 | 67.1 | 82.9 | inactive
MGAM2 | 3 | -0.148 | 53 | 47.8 | inactive
OR7C2 | 1 | 0.58 | 43.4 | 64.8 | active
OR7C2 | 2 | 1.64 | 17.2 | 53.6 | active
OR7C2 | 3 | 0.157 | 83 | 92.5 | active
OR7C2 | 4 | 0.163 | 99.1 | 111 | active
MAPKAPK2 | 1 | -0.392 | 83.7 | 63.8 | inactive
MAPKAPK2 | 2 | -0.445 | 75.9 | 55.8 | inactive
MAPKAPK2 | 3 | -0.173 | 114 | 101 | inactive
MAPKAPK2 | 4 | 0.198 | 15.3 | 17.5 | inactive
NEIL1 | 1 | 0.178 | 89 | 101 | inactive
NEIL1 | 2 | -0.00244 | 86.2 | 86 | inactive
NEIL1 | 3 | -0.124 | 73.8 | 67.7 | inactive
CMA1 | 1 | -0.12 | 87.5 | 80.5 | inactive
CMA1 | 2 | -0.14 | 77.7 | 70.5 | inactive
CMA1 | 3 | -0.141 | 92.1 | 83.5 | inactive
CHGA | 1 | -0.251 | 103 | 86.4 | inactive
CHGA | 2 | -0.27 | 127 | 106 | inactive
CHGA | 3 | -0.117 | 105 | 97.2 | inactive
CHGA | 4 | -0.201 | 69.1 | 60.1 | inactive
CLEC4C | 1 | -0.0334 | 81.1 | 79.2 | inactive
CLEC4C | 2 | -0.261 | 42.9 | 35.8 | inactive
CLEC4C | 3 | -0.449 | 96.7 | 70.9 | inactive
CLEC4C | 4 | 0.0305 | 86.1 | 87.9 | inactive
OR10H2 | 1 | -0.165 | 104 | 93 | inactive
OR10H2 | 2 | -0.104 | 76.2 | 70.9 | inactive
OR10H2 | 3 | -0.476 | 61.3 | 44.1 | inactive
OR10H2 | 4 | -0.446 | 85.3 | 62.6 | inactive
HNRNPUL2 | 1 | -0.24 | 101 | 85.7 | inactive
HNRNPUL2 | 2 | -0.216 | 105 | 90.1 | inactive
HNRNPUL2 | 3 | -0.405 | 110 | 83.2 | inactive
COPG1 | 1 | -0.325 | 17.9 | 14.3 | inactive
COPG1 | 2 | 0.0998 | 10.7 | 11.4 | inactive
COPG1 | 3 | -0.0785 | 2.99 | 2.83 | inactive
COPG1 | 4 | -0.638 | 12.9 | 8.26 | inactive
SCARB1 | 1 | -0.198 | 131 | 114 | inactive
SCARB1 | 2 | -0.31 | 101 | 81.7 | inactive
SCARB1 | 3 | -0.138 | 68.1 | 61.8 | inactive
SCARB1 | 4 | -0.314 | 133 | 107 | inactive
SCARB1 | 5 | -1.11 | 56.1 | 26 | inactive
SCARB1 | 6 | 0.158 | 69.1 | 77.1 | inactive
SCARB1 | 7 | -0.65 | 23.9 | 15.2 | inactive
SCARB1 | 8 | -0.452 | 77.3 | 56.5 | inactive
ENSA | 1 | -0.0311 | 60.1 | 58.8 | inactive
ENSA | 2 | -0.186 | 80.8 | 71.1 | inactive
ENSA | 3 | -0.393 | 49.5 | 37.7 | inactive
ENSA | 4 | -0.374 | 71 | 54.8 | inactive
SPRY2 | 1 | -0.652 | 43.2 | 27.5 | inactive
SPRY2 | 2 | -0.403 | 67.2 | 50.8 | inactive
SPRY2 | 3 | -0.0732 | 57.3 | 54.5 | inactive
SPRY2 | 4 | 0.0504 | 70.4 | 72.9 | inactive
NACA | 1 | -0.259 | 41.2 | 34.4 | inactive
NACA | 2 | 0.303 | 2.33 | 2.87 | inactive
NACA | 3 | -0.0523 | 48.7 | 47 | inactive
NACA | 4 | -0.135 | 66.5 | 60.6 | inactive
FBXO38 | 1 | -0.143 | 115 | 104 | inactive
FBXO38 | 2 | -0.155 | 99.7 | 89.6 | inactive
FBXO38 | 3 | -0.069 | 91.3 | 87.1 | inactive
FBXO38 | 4 | -0.0869 | 94.5 | 88.9 | inactive
HSF4 | 1 | 0.0251 | 10.6 | 10.8 | inactive
HSF4 | 2 | 0.0224 | 87.7 | 89 | inactive
HSF4 | 3 | -0.112 | 52.9 | 48.9 | inactive
HSF4 | 4 | -0.107 | 30.4 | 28.2 | inactive
ABCF1 | 1 | 0.141 | 75 | 82.7 | inactive
ABCF1 | 2 | -0.223 | 88.8 | 76.1 | inactive
ABCF1 | 3 | 0.00847 | 54.1 | 54.4 | inactive
ABCF1 | 4 | 0.435 | 4.23 | 5.72 | inactive

Entries listed so far called active (4):
target | siRNA no. | log2 vehicle/camptothecin viability | viability with camptothecin (% of control) | viability without drug (% of control) | activity call
OR7C2 | 1 | 0.58 | 43.4 | 64.8 | active
OR7C2 | 2 | 1.64 | 17.2 | 53.6 | active
OR7C2 | 3 | 0.157 | 83 | 92.5 | active
OR7C2 | 4 | 0.163 | 99.1 | 111 | active
